Drawing on paper PMC7819943, “Rice protein-binding microarrays: a tool to detect cis-acting elements near promoter regions in rice”, this text covers binding signal for 42 sequences.

The chains behind the UniProt entries cited, without tags or fusion partners.
UniProt Q0JBA9, entry or part of it: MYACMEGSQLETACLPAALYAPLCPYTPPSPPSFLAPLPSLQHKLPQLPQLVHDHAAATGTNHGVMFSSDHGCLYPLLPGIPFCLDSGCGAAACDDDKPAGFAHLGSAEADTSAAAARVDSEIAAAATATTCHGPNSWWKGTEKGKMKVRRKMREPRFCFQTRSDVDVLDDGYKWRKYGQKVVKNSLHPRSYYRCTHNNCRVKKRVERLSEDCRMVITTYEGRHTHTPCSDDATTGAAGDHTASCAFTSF

This is one part of the list.

The target in this test is OsWRKY34 (Oryza sativa, UniProt Q0JBA9 1-250). The experiment in a line: protein-binding microarray (RPBM); PBS, 2% BSA, 51.3 ng/ul salmon testes DNA, 50 uM zinc acetate, 200 nM TF, 25 C, 1 h; high values mean tight binding. To be noted: protein: recombinant; tags: N-terminal polyhistidine and DsRed monomer fusion (pET32a); label: CyDye5-dUTP incorporated in the synthesized complementary strand; 3' TTTTT single-stranded linker to array surface; dsDNA, one strand shown. Put shortly:
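The binding signal is fluorescence intensity per feature, in arbitrary units, read on an Axon 4000B scanner. Polyhistidine- and DsRed-tagged transcription factors (N-terminal fusions) from E. coli BL21-CodonPlus were purified on Ni–NTA and applied at 200 nM for 1 h at 25 °C to a double-stranded, BSA-blocked custom Agilent array in buffer with 50 µM zinc acetate.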
Take “CAACCGGTACTTTCTCCTTCTCGTCGATGATTACAGCTGTCGGAGTCACCTAGTGCAG”: the binding signal is 9320 fluorescence intensity (a.u.). In the case of “CCGAGTTTTTTTTTTCCATTCTTTCTGCTCGCATCAGTCTCGGAGTCACCTAGTGCAG”, the binding signal is 8160 fluorescence intensity (a.u.). Regarding “GGTGGTGGTGGTGGACTGGTGGTGATGGTGGCGTCGCTGGCGGAGTCACCTAGTGCAG”, the binding signal was 10600 fluorescence intensity (a.u.). “CCTACACACATAAACTTCTAACTTTTCTGTCACATCGTTCCGGAGTCACCTAGTGCAG”: the binding signal is 8470 fluorescence intensity (a.u.). In the case of “GTTACTCATATGTTTGGGCGTTGGCTTTCATGTGTTCCTACGGAGTCACCTAGTGCAG”, the binding signal was 8470 fluorescence intensity (a.u.). On to “CGGCCAATCTCCTGTGCACTTTTGACTTTCCATTTTGCCACGGAGTCACCTAGTGCAG”, for which the binding signal was 14900 fluorescence intensity (a.u.). “ATCCACGCATTAGGTTTTTTTGGATCGAGGGGAAGGGAGCCGGAGTCACCTAGTGCAG”: the binding signal is 9490 fluorescence intensity (a.u.). With “TTCTTCATCATCTTCATCGTCTTCTTCTCGACTACTCAATCGGAGTCACCTAGTGCAG”, the binding signal was 11300 fluorescence intensity (a.u.).

Consider “GGCGGGCGGGCGGGCGATCGATTCGGCGAGCGCTTGCGCACGGAGTCACCTAGTGCAG”, for which the binding signal was 10700 fluorescence intensity (a.u.). For the sequence “CACGCCTCGCCCATTGGGATTCGCCGCCCTCACCGCGAGCCGGAGTCACCTAGTGCAG”, the binding signal was 8330 fluorescence intensity (a.u.). On to “GTTCTTTTTTCTATTATTATTCAACTAGCCGTTGAGTTAACGGAGTCACCTAGTGCAG”, for which the binding signal was 8200 fluorescence intensity (a.u.). With “TTACTATTTCGCATTTTTTTTTCTTATTTGCAAGTATACTCGGAGTCACCTAGTGCAG”, the binding signal was 10100 fluorescence intensity (a.u.). As to “TCCAGTTTTCTTGTGGAAGTTTTTTTCCTAAGGCATACATCGGAGTCACCTAGTGCAG”, the binding signal was 8120 fluorescence intensity (a.u.). Then “GTGTGTGATGGGTTAATCGATGTGCTATGTTATTGGTTTCCGGAGTCACCTAGTGCAG”, with 8770 fluorescence intensity (a.u.); and “CTTCCTTTCCAATAGCATTCCCTTTGCCTCGCCATCCTGCCGGAGTCACCTAGTGCAG”, with 10100 fluorescence intensity (a.u.).

On to “TTAACCAATCATAAACTCTCCACGTTCACTTCTACCTACTCGGAGTCACCTAGTGCAG”, for which the binding signal was 8300 fluorescence intensity (a.u.). As for “GTCAACCGCCTACAGTCCGCGCGAATCTGCAACCCAAATCCGGAGTCACCTAGTGCAG”, the binding signal is 9580 fluorescence intensity (a.u.). Turning to “AATAAATATATGTGCCCTGCTTCTCACTGTTCCATTATCACGGAGTCACCTAGTGCAG”, the binding signal was 9810 fluorescence intensity (a.u.). With “GAACGCATATGAATTATATATATCGATTTTTGCATAACTACGGAGTCACCTAGTGCAG”, the binding signal was 8670 fluorescence intensity (a.u.).

“TGAGCTCTGCCAATCGAAGTTTCTGCTGCCACCATTGTCACGGAGTCACCTAGTGCAG”: the binding signal was 10200 fluorescence intensity (a.u.). With “GCTGGCGCCGGAGAGAGAGAGTGGGTTGGTTGTAATAAATCGGAGTCACCTAGTGCAG”, the binding signal is 9290 fluorescence intensity (a.u.). On to “ATAGTTGGTTTCCCGTTCTTTCCACTCCCGTCATGGACTACGGAGTCACCTAGTGCAG”, for which the binding signal was 9520 ± 525 fluorescence intensity (a.u.). For the sequence “CGCGACTGCTCCCGGCCTCATCCTCAATTTCACCTCGTGTCGGAGTCACCTAGTGCAG”, the binding signal is 10200 fluorescence intensity (a.u.). As to “TCTAAATATAGTTCTGCACGTACGTATCGATCGATTGTTCCGGAGTCACCTAGTGCAG”, the binding signal was 11400 fluorescence intensity (a.u.).

For the sequence “TTTGCGTAATGCCTTGAGTTCATCTCACTTTCGATCTTTGCGGAGTCACCTAGTGCAG”, the binding signal is 8990 fluorescence intensity (a.u.). In the case of “TGGCGAGCCCAGATCTGGCCCTGTTTTTTTTTTCTTTTTTCGGAGTCACCTAGTGCAG” it was 9160 fluorescence intensity (a.u.). Turning to “GCCCCTCGTTTTGCGTTTTCTCTTTCTTTCTTTCGTTTTTCGGAGTCACCTAGTGCAG”, the binding signal is 11900 fluorescence intensity (a.u.).

In the case of “GTCCACCTCGCGCCTCTCCAACGCCGCCGCCGCCGCCACCCGGAGTCACCTAGTGCAG”, the binding signal is 8770 fluorescence intensity (a.u.). “CAGTTTGACTGTTGACCCGTAGTTTTGTCACATGATGGATCGGAGTCACCTAGTGCAG”: the binding signal was 12600 fluorescence intensity (a.u.). With “ACTAAGGCGCTATTCTCGCAAGTTTTTTGCACCACACGCTCGGAGTCACCTAGTGCAG”, the binding signal was 8800 fluorescence intensity (a.u.). On to “AACCATGAGCTTCTCCCGTCCCTACAAGACACATCATCCACGGAGTCACCTAGTGCAG”, for which the binding signal was 8080 fluorescence intensity (a.u.). With “CCCCTTTCGCACTCGCACTCGCACTCGCACTACACCCACCCGGAGTCACCTAGTGCAG”, the binding signal was 8370 fluorescence intensity (a.u.). Regarding “ACGTCATCGATCCGCGGCACCCCGCCTCCCACCAATCGCGCGGAGTCACCTAGTGCAG”, the binding signal is 8830 fluorescence intensity (a.u.). For the sequence “GTAAGACCTCACATAACACATGATTTTTCACAACCAATTTCGGAGTCACCTAGTGCAG”, the binding signal is 8620 fluorescence intensity (a.u.).

For “ATCTTTTTTATTTTAACATATTTTCGGTTAAAAACTATTTCGGAGTCACCTAGTGCAG”, the binding signal was 8040 fluorescence intensity (a.u.). In the case of “CGCATCTGACGGTTCGGCTGTTCGATTGGTTGGTTTTGAACGGAGTCACCTAGTGCAG”, the binding signal is 8870 fluorescence intensity (a.u.).

As for “TTTAGGTGTCACATTGAACGTTTGACCAGATATCGGAAGGCGGAGTCACCTAGTGCAG”, the binding signal was 10500 fluorescence intensity (a.u.).

“GATCGAATCGAATAGAGTACATTCTCTACAGGGGAGGGGACGGAGTCACCTAGTGCAG”: the binding signal is 9760 fluorescence intensity (a.u.). Then “TTCTTAATTTCTTCTTTCAGGTCATGTGCATCCATATTGTCGGAGTCACCTAGTGCAG”, with 9680 fluorescence intensity (a.u.); and “ATGGGTTGGTAGAGGGGAGGGAACGCGCGACGGTGGCGAGCGGAGTCACCTAGTGCAG”, with 8740 fluorescence intensity (a.u.); and “CGCCGCCTCCGCCTCGCACAGCCGCCATCCCCGCCTCCGCCGGAGTCACCTAGTGCAG”, with 9500 fluorescence intensity (a.u.). As to “GCACTTCCAATTTTATTTCAAATGGTGCAAGTCACAATGTCGGAGTCACCTAGTGCAG”, the binding signal is 9180 fluorescence intensity (a.u.).
